Measured values: PMC9521185
The exact form of at least one protein or probe is not confirmed. For part of these data: At least one verdict rests on a figure or table, not on a statement of the authors.

Protein sequences, listed by entry. Tags and fused reporters are not part of them. Residues count along the entry.
UniProt P02787, 20-698: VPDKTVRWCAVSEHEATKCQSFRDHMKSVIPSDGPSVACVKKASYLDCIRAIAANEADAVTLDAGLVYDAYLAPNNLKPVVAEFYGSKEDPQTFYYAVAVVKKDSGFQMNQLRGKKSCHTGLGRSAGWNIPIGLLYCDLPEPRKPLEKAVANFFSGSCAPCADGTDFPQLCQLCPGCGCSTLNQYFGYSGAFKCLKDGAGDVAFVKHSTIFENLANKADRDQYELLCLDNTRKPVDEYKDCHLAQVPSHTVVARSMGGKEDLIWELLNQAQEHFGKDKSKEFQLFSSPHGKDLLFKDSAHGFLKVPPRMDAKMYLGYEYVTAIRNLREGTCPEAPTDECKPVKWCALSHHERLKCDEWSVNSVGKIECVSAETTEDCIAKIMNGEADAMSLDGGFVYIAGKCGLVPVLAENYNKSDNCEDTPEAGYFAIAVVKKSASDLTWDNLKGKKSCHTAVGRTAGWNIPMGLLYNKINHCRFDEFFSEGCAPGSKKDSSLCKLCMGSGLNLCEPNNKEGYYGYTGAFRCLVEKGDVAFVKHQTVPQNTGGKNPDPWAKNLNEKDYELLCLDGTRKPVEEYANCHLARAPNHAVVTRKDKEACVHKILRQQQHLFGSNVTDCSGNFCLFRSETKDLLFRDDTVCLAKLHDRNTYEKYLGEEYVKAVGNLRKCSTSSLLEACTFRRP
UniProt P01267, 20-2769: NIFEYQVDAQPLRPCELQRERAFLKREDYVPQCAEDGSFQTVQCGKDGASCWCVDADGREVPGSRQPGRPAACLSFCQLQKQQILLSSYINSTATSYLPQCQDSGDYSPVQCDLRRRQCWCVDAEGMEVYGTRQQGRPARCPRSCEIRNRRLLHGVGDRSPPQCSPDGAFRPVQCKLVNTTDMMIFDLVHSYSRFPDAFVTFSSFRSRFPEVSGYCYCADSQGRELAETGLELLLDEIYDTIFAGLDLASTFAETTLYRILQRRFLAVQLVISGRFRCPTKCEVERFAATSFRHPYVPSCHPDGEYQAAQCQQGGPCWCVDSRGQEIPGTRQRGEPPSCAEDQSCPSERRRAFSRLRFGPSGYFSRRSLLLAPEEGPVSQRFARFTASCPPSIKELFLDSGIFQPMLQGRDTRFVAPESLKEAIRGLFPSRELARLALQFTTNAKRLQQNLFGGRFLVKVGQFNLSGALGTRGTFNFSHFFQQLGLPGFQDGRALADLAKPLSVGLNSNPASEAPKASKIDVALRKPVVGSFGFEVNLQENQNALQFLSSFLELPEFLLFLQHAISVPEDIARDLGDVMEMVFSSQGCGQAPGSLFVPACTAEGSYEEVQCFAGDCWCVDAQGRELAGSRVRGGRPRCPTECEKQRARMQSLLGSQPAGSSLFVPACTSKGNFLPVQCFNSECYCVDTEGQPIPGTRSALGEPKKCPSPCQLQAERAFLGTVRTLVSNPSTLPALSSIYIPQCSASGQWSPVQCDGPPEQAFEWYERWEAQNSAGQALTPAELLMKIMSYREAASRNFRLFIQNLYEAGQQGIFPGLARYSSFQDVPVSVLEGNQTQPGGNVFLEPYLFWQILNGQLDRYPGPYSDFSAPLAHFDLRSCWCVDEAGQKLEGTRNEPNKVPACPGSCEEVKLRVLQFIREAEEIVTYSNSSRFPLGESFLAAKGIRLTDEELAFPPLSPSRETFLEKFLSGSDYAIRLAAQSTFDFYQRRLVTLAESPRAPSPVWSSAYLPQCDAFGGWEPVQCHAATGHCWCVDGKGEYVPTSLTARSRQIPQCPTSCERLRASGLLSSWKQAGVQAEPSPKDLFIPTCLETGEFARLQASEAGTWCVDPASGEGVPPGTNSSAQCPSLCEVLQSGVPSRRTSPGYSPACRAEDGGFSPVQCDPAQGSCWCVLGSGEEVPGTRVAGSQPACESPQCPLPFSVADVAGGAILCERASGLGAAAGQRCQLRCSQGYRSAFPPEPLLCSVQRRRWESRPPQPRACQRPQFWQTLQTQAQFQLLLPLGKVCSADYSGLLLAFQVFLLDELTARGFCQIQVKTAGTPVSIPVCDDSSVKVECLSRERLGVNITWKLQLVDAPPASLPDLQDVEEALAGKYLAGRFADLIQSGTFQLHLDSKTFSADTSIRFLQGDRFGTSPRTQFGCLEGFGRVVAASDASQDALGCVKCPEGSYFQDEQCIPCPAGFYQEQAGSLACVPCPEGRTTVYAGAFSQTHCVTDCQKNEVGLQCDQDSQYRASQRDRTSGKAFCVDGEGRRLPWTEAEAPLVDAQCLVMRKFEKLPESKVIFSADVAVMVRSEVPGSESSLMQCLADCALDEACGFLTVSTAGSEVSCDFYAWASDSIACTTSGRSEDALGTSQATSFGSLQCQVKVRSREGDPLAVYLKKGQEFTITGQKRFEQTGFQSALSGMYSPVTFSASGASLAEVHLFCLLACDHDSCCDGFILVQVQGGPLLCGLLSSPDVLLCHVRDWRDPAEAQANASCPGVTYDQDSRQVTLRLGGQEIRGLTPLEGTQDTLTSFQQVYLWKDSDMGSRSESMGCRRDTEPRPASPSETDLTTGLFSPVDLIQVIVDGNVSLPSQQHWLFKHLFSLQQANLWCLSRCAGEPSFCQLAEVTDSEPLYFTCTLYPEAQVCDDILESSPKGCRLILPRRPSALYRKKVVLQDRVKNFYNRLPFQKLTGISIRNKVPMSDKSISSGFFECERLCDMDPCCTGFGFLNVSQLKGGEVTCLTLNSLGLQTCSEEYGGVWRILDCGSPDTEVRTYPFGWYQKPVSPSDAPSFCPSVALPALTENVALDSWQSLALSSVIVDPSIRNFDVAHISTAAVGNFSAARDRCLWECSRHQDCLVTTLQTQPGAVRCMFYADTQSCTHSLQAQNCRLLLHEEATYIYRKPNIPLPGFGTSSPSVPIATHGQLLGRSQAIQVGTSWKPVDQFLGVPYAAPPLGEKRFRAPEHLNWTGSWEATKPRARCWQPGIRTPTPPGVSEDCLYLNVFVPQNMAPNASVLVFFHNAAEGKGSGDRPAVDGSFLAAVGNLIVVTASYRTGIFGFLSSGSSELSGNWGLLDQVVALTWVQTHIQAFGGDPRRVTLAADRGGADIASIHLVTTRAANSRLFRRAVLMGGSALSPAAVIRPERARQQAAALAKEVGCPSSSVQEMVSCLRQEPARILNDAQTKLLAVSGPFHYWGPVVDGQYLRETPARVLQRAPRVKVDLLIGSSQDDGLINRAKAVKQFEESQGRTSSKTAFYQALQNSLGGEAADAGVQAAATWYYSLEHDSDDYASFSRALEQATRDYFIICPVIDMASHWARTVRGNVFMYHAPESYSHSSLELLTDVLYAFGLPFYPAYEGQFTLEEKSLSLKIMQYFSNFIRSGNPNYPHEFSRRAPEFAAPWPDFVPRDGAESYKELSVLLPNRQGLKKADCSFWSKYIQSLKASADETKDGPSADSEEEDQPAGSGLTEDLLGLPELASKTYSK
UniProt P24627, 20-708: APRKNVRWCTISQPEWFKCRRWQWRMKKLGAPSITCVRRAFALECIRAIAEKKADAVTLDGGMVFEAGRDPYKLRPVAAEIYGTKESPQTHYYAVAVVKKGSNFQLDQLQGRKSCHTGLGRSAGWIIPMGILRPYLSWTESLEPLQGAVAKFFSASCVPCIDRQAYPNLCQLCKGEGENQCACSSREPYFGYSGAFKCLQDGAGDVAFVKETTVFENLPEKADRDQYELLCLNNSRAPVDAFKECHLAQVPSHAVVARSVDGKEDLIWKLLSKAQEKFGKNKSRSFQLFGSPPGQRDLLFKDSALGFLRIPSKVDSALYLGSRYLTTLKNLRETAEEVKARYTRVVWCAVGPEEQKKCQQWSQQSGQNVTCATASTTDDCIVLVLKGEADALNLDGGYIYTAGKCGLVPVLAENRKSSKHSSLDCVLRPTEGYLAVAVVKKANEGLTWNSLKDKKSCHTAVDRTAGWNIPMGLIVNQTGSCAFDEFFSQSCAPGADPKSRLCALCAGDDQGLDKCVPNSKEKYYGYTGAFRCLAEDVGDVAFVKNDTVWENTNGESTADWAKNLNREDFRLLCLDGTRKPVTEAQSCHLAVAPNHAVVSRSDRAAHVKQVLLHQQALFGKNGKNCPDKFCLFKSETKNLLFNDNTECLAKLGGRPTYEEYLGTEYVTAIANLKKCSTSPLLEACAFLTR

Tests used:
[1] = molecular target: transferrin (H-TF) (human) (UniProt P02787); assay: PicoGreen dye-displacement fluorescence; conditions: fluorescence ex 485 nm / em 528 nm, microplate reader, commercial protein, label: none (label-free, PicoGreen intercalated), single-stranded DNA
[2] = molecular target: thyroglobulin (TG) (bovine) (UniProt P01267); assay: PicoGreen dye-displacement fluorescence; conditions: fluorescence ex 485 nm / em 528 nm, microplate reader, commercial protein, label: none (label-free, PicoGreen intercalated), single-stranded DNA
[3] = molecular target: lactoferrin (LF) (bovine (milk)) (UniProt P24627); assay: CE-SELEX work of the cited paper; Kd method not stated here; conditions: fluorescence ex 485 nm / em 528 nm, microplate reader; commercial protein; label: none (label-free, PicoGreen intercalated); single-stranded DNA

AGCAGCACAGAGGTCAGATGCGACTTGCCTATCGGCATGACACAATCTTTTGGAGCGTAACCTATGCGTGCTACCGTGAA [H-TF aptamer]
binding result [1]: binds

CCTAACCGATATCACACTCACCGCGTGAGCGGGGAGGCGATGCCCAGGCTAACTTGACTCAGTTGGTCGTCATTGGAGTATC [TG aptamer]
binding result [2]: binds

TGGTGCTGCCCCTAGTCTCCGGCTGATAGCTGCTTCTTGG [LF aptamer]
Kd [3]: 0.0207 µM
